PubChem BioAssay AID1259254 – NCATS | 2017
Aim: 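Gene knock-downs that lead to re-replication, shown by excess G2 DNA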 (primary screen). Cell system: human HCT116 colorectal cancer cells. Reagent: single siRNA against human genes. Duration: 3 days. Detection: 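Nuclei stained with Hoechst and imaged; cell-cycle phase assigned by DNA content; G2 share scaled per plate, non-targeting siRNA 0%, GMNN siRNA 100%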. Reading the numbers: G2 robust z-score and G2 cells, % of GMNN control: higher = more G2 cells, more excess DNA replication. Rule for the call: 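An siRNA counts as active if its G2 robust z-score lies at least 5 MADs above the screen median; here such calls match roughly 38% of GMNN control or more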.
Here is an unselected part of about 59,000 deposited reagents. Of all reagents, about 1,550 (2.6%) were called active. 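G2 share is only a proxy for re-replication; each gene was hit by three separate siRNAs, and active genes were retested.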 Reagents against one gene are numbered here. Further read-outs or replicates are left out here. Reagent sequences are not shown. Not given: the amount of reagent.

The opening 3 records as a preview:
GRN (GeneID 2896) #1 | G2 robust z-score: -0.759; G2 cells, % of GMNN control: -2.37; Call: inactive
GRN (GeneID 2896) #2 | G2 robust z-score: 4.08; G2 cells, % of GMNN control: 31.6; Call: inactive
GRN (GeneID 2896) #3 | G2 robust z-score: -0.0372; G2 cells, % of GMNN control: 2.71; Call: inactive

Results, repeating the preview:
GRN (GeneID 2896) #1 | G2 robust z-score: -0.759; G2 cells, % of GMNN control: -2.37; Call: inactive
GRN (GeneID 2896) #2 | G2 robust z-score: 4.08; G2 cells, % of GMNN control: 31.6; Call: inactive
GRN (GeneID 2896) #3 | G2 robust z-score: -0.0372; G2 cells, % of GMNN control: 2.71; Call: inactive
MRPS23 (GeneID 51649) #1 | G2 robust z-score: -0.166; G2 cells, % of GMNN control: 1.8; Call: inactive
MRPS23 (GeneID 51649) #2 | G2 robust z-score: -0.707; G2 cells, % of GMNN control: -2.01; Call: inactive
MRPS23 (GeneID 51649) #3 | G2 robust z-score: -1.36; G2 cells, % of GMNN control: -6.6; Call: inactive
E2F1 (GeneID 1869) #1 | G2 robust z-score: -1.18; G2 cells, % of GMNN control: -5.32; Call: inactive
E2F1 (GeneID 1869) #2 | G2 robust z-score: 0.924; G2 cells, % of GMNN control: 9.47; Call: inactive
E2F1 (GeneID 1869) #3 | G2 robust z-score: -0.887; G2 cells, % of GMNN control: -3.27; Call: inactive
EIF2B5 (GeneID 8893) #1 | G2 robust z-score: -1.52; G2 cells, % of GMNN control: -7.75; Call: inactive
EIF2B5 (GeneID 8893) #2 | G2 robust z-score: 2.09; G2 cells, % of GMNN control: 17.6; Call: inactive
EIF2B5 (GeneID 8893) #3 | G2 robust z-score: 1.5; G2 cells, % of GMNN control: 13.5; Call: inactive
OR1N2 (GeneID 138882) #1 | G2 robust z-score: -0.534; G2 cells, % of GMNN control: -0.788; Call: inactive
OR1N2 (GeneID 138882) #2 | G2 robust z-score: -0.463; G2 cells, % of GMNN control: -0.287; Call: inactive
OR1N2 (GeneID 138882) #3 | G2 robust z-score: -0.809; G2 cells, % of GMNN control: -2.72; Call: inactive
PIGM (GeneID 93183) #1 | G2 robust z-score: 2.86; G2 cells, % of GMNN control: 23.1; Call: inactive
PIGM (GeneID 93183) #2 | G2 robust z-score: 0.413; G2 cells, % of GMNN control: 5.87; Call: inactive
PIGM (GeneID 93183) #3 | G2 robust z-score: 1.37; G2 cells, % of GMNN control: 12.6; Call: inactive
SCP2D1 (GeneID 140856) #1 | G2 robust z-score: -0.973; G2 cells, % of GMNN control: -3.88; Call: inactive
SCP2D1 (GeneID 140856) #2 | G2 robust z-score: -0.656; G2 cells, % of GMNN control: -1.65; Call: inactive
SCP2D1 (GeneID 140856) #3 | G2 robust z-score: 0.253; G2 cells, % of GMNN control: 4.75; Call: inactive
DLG1 (GeneID 1739) #1 | G2 robust z-score: -0.563; G2 cells, % of GMNN control: -0.991; Call: inactive
DLG1 (GeneID 1739) #2 | G2 robust z-score: -0.112; G2 cells, % of GMNN control: 2.18; Call: inactive
DLG1 (GeneID 1739) #3 | G2 robust z-score: 0.26; G2 cells, % of GMNN control: 4.8; Call: inactive
